Test results reported in article PMC5824958.
Results are given in words; binding and its absence hold for the method and conditions named. In cells and extracts the contact can be indirect. Some results given as binding are weak or reduced against the parent protein; the word gives no strength.

Chains of the proteins cited; added tags and fusions are not shown.
UniProt P07825: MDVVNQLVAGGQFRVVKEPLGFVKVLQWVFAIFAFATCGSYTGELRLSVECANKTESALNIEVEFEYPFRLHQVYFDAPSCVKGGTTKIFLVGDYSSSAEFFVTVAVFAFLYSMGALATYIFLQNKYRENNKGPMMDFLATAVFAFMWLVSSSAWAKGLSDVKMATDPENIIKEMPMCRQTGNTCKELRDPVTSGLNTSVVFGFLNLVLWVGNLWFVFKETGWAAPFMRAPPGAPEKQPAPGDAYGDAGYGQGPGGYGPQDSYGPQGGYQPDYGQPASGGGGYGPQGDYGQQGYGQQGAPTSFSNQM

Experiments:
Assay in all cases: co-IP; rat cerebral cortex lysate; IP with anti-BRI2, anti-PSD-95, anti-synaptophysin or anti-GAP-43 antibody on Dynabeads Protein G; SDS-PAGE and immunoblot; mock IPs with mouse or rabbit IgG
[1] = target: T1, BRI2 (integral membrane protein 2B) (rat (endogenous in brain)) (UniProt Q5XIE8)
T1 sequence: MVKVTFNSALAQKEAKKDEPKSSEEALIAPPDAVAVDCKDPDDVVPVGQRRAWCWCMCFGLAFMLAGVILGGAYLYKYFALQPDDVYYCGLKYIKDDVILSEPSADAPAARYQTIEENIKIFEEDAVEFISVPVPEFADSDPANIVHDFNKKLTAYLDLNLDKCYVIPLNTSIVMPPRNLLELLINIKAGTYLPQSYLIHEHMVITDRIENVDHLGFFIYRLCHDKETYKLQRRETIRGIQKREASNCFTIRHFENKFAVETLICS

[2] = target: Synaptophysin (rat (endogenous in brain)) (UniProt P07825)
[3] = target: T2, Neuromodulin (rat (endogenous in brain)) (UniProt P07936)
T2 sequence: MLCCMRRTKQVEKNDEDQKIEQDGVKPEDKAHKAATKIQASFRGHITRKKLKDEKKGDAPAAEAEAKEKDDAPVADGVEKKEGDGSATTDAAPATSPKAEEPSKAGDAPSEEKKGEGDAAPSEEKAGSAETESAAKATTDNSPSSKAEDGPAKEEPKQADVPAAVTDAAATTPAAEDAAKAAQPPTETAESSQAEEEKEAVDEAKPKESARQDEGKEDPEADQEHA

B1: Neuromodulin (protein, UniProt P07936 1-226)
chain: MLCCMRRTKQVEKNDEDQKIEQDGVKPEDKAHKAATKIQASFRGHITRKKLKDEKKGDAPAAEAEAKEKDDAPVADGVEKKEGDGSATTDAAPATSPKAEEPSKAGDAPSEEKKGEGDAAPSEEKAGSAETESAAKATTDNSPSSKAEDGPAKEEPKQADVPAAVTDAAATTPAAEDAAKAAQPPTETAESSQAEEEKEAVDEAKPKESARQDEGKEDPEADQEHA
Question: With B1 as the binder, how does the binding [1] read?
Answer: The binding was “binds”.

B2: BRI2 (integral membrane protein 2B) (protein, UniProt Q5XIE8 1-266)
chain: MVKVTFNSALAQKEAKKDEPKSSEEALIAPPDAVAVDCKDPDDVVPVGQRRAWCWCMCFGLAFMLAGVILGGAYLYKYFALQPDDVYYCGLKYIKDDVILSEPSADAPAARYQTIEENIKIFEEDAVEFISVPVPEFADSDPANIVHDFNKKLTAYLDLNLDKCYVIPLNTSIVMPPRNLLELLINIKAGTYLPQSYLIHEHMVITDRIENVDHLGFFIYRLCHDKETYKLQRRETIRGIQKREASNCFTIRHFENKFAVETLICS
Question: B2 was tested. Which binding [2] did it give?
Answer: Its binding is “binds”.

Question: What about the binding [3] of the same binder?
Answer: The binding was “binds”.
